Data published in PMC5078767.
No constants are given. Whether binding was seen depends on the method and setting. In cells and extracts the contact can be indirect. Some entries that bind do so weakly or less than the wild type. For some of these results: Tags and fused reporters may be left off the sequences shown.

Sequences of proteins named here, by UniProt entry; tags and fusion partners are left off.
UniProt O15169: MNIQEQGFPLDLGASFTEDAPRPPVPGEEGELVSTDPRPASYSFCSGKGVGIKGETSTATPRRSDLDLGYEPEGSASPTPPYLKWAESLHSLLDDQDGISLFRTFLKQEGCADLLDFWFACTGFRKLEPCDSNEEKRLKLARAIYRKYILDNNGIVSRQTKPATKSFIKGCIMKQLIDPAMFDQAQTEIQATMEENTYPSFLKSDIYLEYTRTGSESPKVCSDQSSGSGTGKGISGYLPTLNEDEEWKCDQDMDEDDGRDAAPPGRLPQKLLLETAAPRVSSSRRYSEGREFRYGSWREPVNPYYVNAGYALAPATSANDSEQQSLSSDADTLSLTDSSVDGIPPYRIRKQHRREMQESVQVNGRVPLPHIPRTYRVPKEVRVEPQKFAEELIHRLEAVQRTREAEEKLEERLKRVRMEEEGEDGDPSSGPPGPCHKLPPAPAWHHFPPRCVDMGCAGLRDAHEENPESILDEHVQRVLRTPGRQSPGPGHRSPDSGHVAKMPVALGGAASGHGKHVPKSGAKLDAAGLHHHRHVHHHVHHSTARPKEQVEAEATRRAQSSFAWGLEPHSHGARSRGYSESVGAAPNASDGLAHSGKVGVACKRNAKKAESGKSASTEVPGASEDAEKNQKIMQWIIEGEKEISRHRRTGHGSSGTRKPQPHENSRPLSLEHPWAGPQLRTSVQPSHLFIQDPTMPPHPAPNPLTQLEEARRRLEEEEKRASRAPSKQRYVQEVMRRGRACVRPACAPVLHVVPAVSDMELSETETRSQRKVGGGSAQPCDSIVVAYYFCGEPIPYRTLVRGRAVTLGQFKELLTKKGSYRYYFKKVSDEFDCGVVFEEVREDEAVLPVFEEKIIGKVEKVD

T1: endogenous DVL-1 (human (endogenous in MDA-MB-231 or SW480)) (UniProt O14640)
T1 sequence: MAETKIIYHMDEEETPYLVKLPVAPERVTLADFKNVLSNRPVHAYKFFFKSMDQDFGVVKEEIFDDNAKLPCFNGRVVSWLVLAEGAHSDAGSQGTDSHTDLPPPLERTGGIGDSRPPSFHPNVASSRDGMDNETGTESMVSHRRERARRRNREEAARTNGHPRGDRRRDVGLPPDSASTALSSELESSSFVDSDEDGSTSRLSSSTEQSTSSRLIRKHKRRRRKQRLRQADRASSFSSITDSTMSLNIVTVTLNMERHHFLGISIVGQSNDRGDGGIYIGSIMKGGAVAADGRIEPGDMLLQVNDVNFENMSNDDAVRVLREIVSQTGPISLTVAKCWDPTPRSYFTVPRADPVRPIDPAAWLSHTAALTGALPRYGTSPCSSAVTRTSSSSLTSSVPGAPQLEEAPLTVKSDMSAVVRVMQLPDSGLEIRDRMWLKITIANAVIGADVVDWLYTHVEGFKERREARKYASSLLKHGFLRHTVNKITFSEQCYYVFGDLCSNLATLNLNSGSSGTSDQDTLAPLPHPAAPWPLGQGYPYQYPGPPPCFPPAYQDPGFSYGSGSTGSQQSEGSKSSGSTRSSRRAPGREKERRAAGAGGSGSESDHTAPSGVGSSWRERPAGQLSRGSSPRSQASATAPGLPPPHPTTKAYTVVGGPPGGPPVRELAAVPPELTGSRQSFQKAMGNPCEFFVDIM

T2: MBP-LMO2 recombinant fusion protein (human) (UniProt P25791)
T2 sequence: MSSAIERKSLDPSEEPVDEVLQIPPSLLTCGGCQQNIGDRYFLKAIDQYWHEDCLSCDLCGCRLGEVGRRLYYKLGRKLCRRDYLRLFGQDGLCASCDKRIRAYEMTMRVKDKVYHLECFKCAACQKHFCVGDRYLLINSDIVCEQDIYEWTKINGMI

T3: endogenous LMO2 (human (endogenous in MDA-MB-231 and SW480)) (UniProt P25791)
T3 sequence: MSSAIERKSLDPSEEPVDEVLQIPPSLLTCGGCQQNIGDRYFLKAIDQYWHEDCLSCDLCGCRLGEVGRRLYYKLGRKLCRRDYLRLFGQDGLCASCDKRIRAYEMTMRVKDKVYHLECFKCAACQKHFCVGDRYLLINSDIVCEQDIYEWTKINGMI


Assays:
[1] = target: T1, endogenous DVL-1 (human (endogenous in MDA-MB-231 or SW480)); assay: co-IP; lysates of LMO2-overexpressing, control and sh-LMO2 MDA-MB-231/SW480 cells, upon Wnt3A stimulation; immunoprecipitated with anti-DVL-1/2, immunoblotted with anti-Axin1; 1 mg total protein
[2] = target: T2, MBP-LMO2 recombinant fusion protein (human); assay: pull-down; purified recombinant MBP-LMO2 incubated with lysates of HEK293T cells transiently overexpressing Myc-DVL constructs; precipitated with amylose resin; anti-Myc immunoblot; 1 mg total protein; only the target purified
[3] = target: T3, endogenous LMO2 (human (endogenous in MDA-MB-231 and SW480)); assay: co-IP; lysates of MDA-MB-231 or SW480 cells; immunoprecipitated with anti-LMO2, immunoblotted with anti-DVL-1 or anti-DVL-2; 1 mg total protein; endogenous proteins
[4] = target: T3, endogenous LMO2 (human (endogenous in MDA-MB-231 and SW480)); assay: co-IP; isolated cytosolic and nuclear fractions of MDA-MB-231 and SW480 cells (Fig. S3B)

binding [2] | Molecule | further results
– | endogenous Axin1 (from UniProt O15169 1-862) | binding [1]: binds
binds | DVL-1 PDZ domain (200-400 aa), Myc-tagged (domain or fragment, UniProt O14640 200-400) TSRLSSSTEQSTSSRLIRKHKRRRRKQRLRQADRASSFSSITDSTMSLNIVTVTLNMERHHFLGISIVGQSNDRGDGGIYIGSIMKGGAVAADGRIEPGDMLLQVNDVNFENMSNDDAVRVLREIVSQTGPISLTVAKCWDPTPRSYFTVPRADPVRPIDPAAWLSHTAALTGALPRYGTSPCSSAVTRTSSSSLTSSVPG | –
binds | DVL-2 PDZ domain (200-400 aa), Myc-tagged (domain or fragment, UniProt O14641 200-400) TSELESTSLGDSDEEDTMSRFSSSTEQSSASRLLKRHRRRRKQRPPRLERTSSFSSVTDSTMSLNIITVTLNMEKYNFLGISIVGQSNERGDGGIYIGSIMKGGAVAADGRIEPGDMLLQVNDMNFENMSNDDAVRVLRDIVHKPGPIVLTVAKCWDPSPQAYFTLPRNEPIQPIDPAAWVSHSAALTGTFPAYPGSSSMS | –
binds | DVL-2 ΔDIX (200 C-terminal aa), Myc-tagged (domain or fragment, UniProt O14641 200-736) TSELESTSLGDSDEEDTMSRFSSSTEQSSASRLLKRHRRRRKQRPPRLERTSSFSSVTDSTMSLNIITVTLNMEKYNFLGISIVGQSNERGDGGIYIGSIMKGGAVAADGRIEPGDMLLQVNDMNFENMSNDDAVRVLRDIVHKPGPIVLTVAKCWDPSPQAYFTLPRNEPIQPIDPAAWVSHSAALTGTFPAYPGSSSMSTITSGSSLPDGCEGRGLSVHTDMASVTKAMAAPESGLEVRDRMWLKITIPNAFLGSDVVDWLYHHVEGFPERREARKYASGLLKAGLIRHTVNKITFSEQCYYVFGDLSGGCESYLVNLSLNDNDGSSGASDQDTLAPLPGATPWPLLPTFSYQYPAPHPYSPQPPPYHELSSYTYGGGSASSQHSEGSRSSGSTRSDGGAGRTGRPEERAPESKSGSGSESEPSSRGGSLRRGGEASGTSDGGPPPSRGSTGGAPNLRAHPGLHPYGPPPGMALPYNPMMVVMMPPPPPPVPPAVQPPGAPPVRDLGSVPPELTASRQSFHMAMGNPSEFFVDVM | –
binds | Myc-DVL-1 (full-length human Dishevelled-1) (protein, UniProt O14640 1-695) MAETKIIYHMDEEETPYLVKLPVAPERVTLADFKNVLSNRPVHAYKFFFKSMDQDFGVVKEEIFDDNAKLPCFNGRVVSWLVLAEGAHSDAGSQGTDSHTDLPPPLERTGGIGDSRPPSFHPNVASSRDGMDNETGTESMVSHRRERARRRNREEAARTNGHPRGDRRRDVGLPPDSASTALSSELESSSFVDSDEDGSTSRLSSSTEQSTSSRLIRKHKRRRRKQRLRQADRASSFSSITDSTMSLNIVTVTLNMERHHFLGISIVGQSNDRGDGGIYIGSIMKGGAVAADGRIEPGDMLLQVNDVNFENMSNDDAVRVLREIVSQTGPISLTVAKCWDPTPRSYFTVPRADPVRPIDPAAWLSHTAALTGALPRYGTSPCSSAVTRTSSSSLTSSVPGAPQLEEAPLTVKSDMSAVVRVMQLPDSGLEIRDRMWLKITIANAVIGADVVDWLYTHVEGFKERREARKYASSLLKHGFLRHTVNKITFSEQCYYVFGDLCSNLATLNLNSGSSGTSDQDTLAPLPHPAAPWPLGQGYPYQYPGPPPCFPPAYQDPGFSYGSGSTGSQQSEGSKSSGSTRSSRRAPGREKERRAAGAGGSGSESDHTAPSGVGSSWRERPAGQLSRGSSPRSQASATAPGLPPPHPTTKAYTVVGGPPGGPPVRELAAVPPELTGSRQSFQKAMGNPCEFFVDIM | –
– | endogenous DVL-1 (protein, UniProt O14640 1-695) MAETKIIYHMDEEETPYLVKLPVAPERVTLADFKNVLSNRPVHAYKFFFKSMDQDFGVVKEEIFDDNAKLPCFNGRVVSWLVLAEGAHSDAGSQGTDSHTDLPPPLERTGGIGDSRPPSFHPNVASSRDGMDNETGTESMVSHRRERARRRNREEAARTNGHPRGDRRRDVGLPPDSASTALSSELESSSFVDSDEDGSTSRLSSSTEQSTSSRLIRKHKRRRRKQRLRQADRASSFSSITDSTMSLNIVTVTLNMERHHFLGISIVGQSNDRGDGGIYIGSIMKGGAVAADGRIEPGDMLLQVNDVNFENMSNDDAVRVLREIVSQTGPISLTVAKCWDPTPRSYFTVPRADPVRPIDPAAWLSHTAALTGALPRYGTSPCSSAVTRTSSSSLTSSVPGAPQLEEAPLTVKSDMSAVVRVMQLPDSGLEIRDRMWLKITIANAVIGADVVDWLYTHVEGFKERREARKYASSLLKHGFLRHTVNKITFSEQCYYVFGDLCSNLATLNLNSGSSGTSDQDTLAPLPHPAAPWPLGQGYPYQYPGPPPCFPPAYQDPGFSYGSGSTGSQQSEGSKSSGSTRSSRRAPGREKERRAAGAGGSGSESDHTAPSGVGSSWRERPAGQLSRGSSPRSQASATAPGLPPPHPTTKAYTVVGGPPGGPPVRELAAVPPELTGSRQSFQKAMGNPCEFFVDIM | binding [3]: binds; binding [4]: binds
binds | DVL-2 ΔDEP (1-400 aa), Myc-tagged (domain or fragment, UniProt O14641 1-400) MAGSSTGGGGVGETKVIYHLDEEETPYLVKIPVPAERITLGDFKSVLQRPAGAKYFFKSMDQDFGVVKEEISDDNARLPCFNGRVVSWLVSSDNPQPEMAPPVHEPRAELAPPAPPLPPLPPERTSGIGDSRPPSFHPNVSSSHENLEPETETESVVSLRRERPRRRDSSEHGAGGHRTGGPSRLERHLAGYESSSTLMTSELESTSLGDSDEEDTMSRFSSSTEQSSASRLLKRHRRRRKQRPPRLERTSSFSSVTDSTMSLNIITVTLNMEKYNFLGISIVGQSNERGDGGIYIGSIMKGGAVAADGRIEPGDMLLQVNDMNFENMSNDDAVRVLRDIVHKPGPIVLTVAKCWDPSPQAYFTLPRNEPIQPIDPAAWVSHSAALTGTFPAYPGSSSMS | –
binds | DVL-1 ΔDEP (1-400 aa), Myc-tagged (domain or fragment, UniProt O14640 1-400) MAETKIIYHMDEEETPYLVKLPVAPERVTLADFKNVLSNRPVHAYKFFFKSMDQDFGVVKEEIFDDNAKLPCFNGRVVSWLVLAEGAHSDAGSQGTDSHTDLPPPLERTGGIGDSRPPSFHPNVASSRDGMDNETGTESMVSHRRERARRRNREEAARTNGHPRGDRRRDVGLPPDSASTALSSELESSSFVDSDEDGSTSRLSSSTEQSTSSRLIRKHKRRRRKQRLRQADRASSFSSITDSTMSLNIVTVTLNMERHHFLGISIVGQSNDRGDGGIYIGSIMKGGAVAADGRIEPGDMLLQVNDVNFENMSNDDAVRVLREIVSQTGPISLTVAKCWDPTPRSYFTVPRADPVRPIDPAAWLSHTAALTGALPRYGTSPCSSAVTRTSSSSLTSSVPG | –
binds | DVL-1 ΔDIX (200 C-terminal aa), Myc-tagged (domain or fragment, UniProt O14640 200-695) TSRLSSSTEQSTSSRLIRKHKRRRRKQRLRQADRASSFSSITDSTMSLNIVTVTLNMERHHFLGISIVGQSNDRGDGGIYIGSIMKGGAVAADGRIEPGDMLLQVNDVNFENMSNDDAVRVLREIVSQTGPISLTVAKCWDPTPRSYFTVPRADPVRPIDPAAWLSHTAALTGALPRYGTSPCSSAVTRTSSSSLTSSVPGAPQLEEAPLTVKSDMSAVVRVMQLPDSGLEIRDRMWLKITIANAVIGADVVDWLYTHVEGFKERREARKYASSLLKHGFLRHTVNKITFSEQCYYVFGDLCSNLATLNLNSGSSGTSDQDTLAPLPHPAAPWPLGQGYPYQYPGPPPCFPPAYQDPGFSYGSGSTGSQQSEGSKSSGSTRSSRRAPGREKERRAAGAGGSGSESDHTAPSGVGSSWRERPAGQLSRGSSPRSQASATAPGLPPPHPTTKAYTVVGGPPGGPPVRELAAVPPELTGSRQSFQKAMGNPCEFFVDIM | –
